Results from the supplement of paper PMC4371806.
Over roughly 1,600 compounds, “plate-normalized OD600 growth (mean of duplicates)” has its median near 0.31; the lowest 2% begin near 0.23. The list shows a part of the results.

Test system: Escherichia coli BW25113
Assay: plate-normalized OD600 growth (mean of duplicates) (OD600 (normalized)); higher = more growth (less inhibition)
Details: 10 µM
Protocol: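 E. coli BW25113 in LB (100 µl, 96-well, no shaking) was exposed to 10 µM of each compound (here the ChemBridge subset of a ~30,000-member library) and grown at 37°C for 24 h or 15°C for 48 h, in duplicate. Growth was read as OD600 and the duplicate ODs were normalized across screening plates to correct plate-to-plate variation.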

Compound | plate-normalized OD600 growth (temperature: 15°C, 48 h) | plate-normalized OD600 growth (temperature: 37°C, 24 h)
Oc1c(Cl)cc(Cl)cc1C(C#Cc1ccccc1)N1CCOCC1 (configuration not stated) | 0.262 | 0.62
Cc1ccc(CN(C)CCc2ccccn2)cc1 | 0.272 | 0.619
Cc1[nH]n(-c2ccccc2)c(=O)c1C=O | 0.224 | 0.605
O=C(O)c1cccc(NC(=O)c2ccco2)c1 | 0.252 | 0.618
CC(C)(C)c1csc(NC(=O)c2ccco2)n1 | 0.229 | 0.608
Cc1ccc2ncnc(-c3ccccc3)c2c1 | 0.253 | 0.621
CC1(C)CC(n2c(NCCO)nc3c(c2=O)C2(CCCCC2)Cc2ccccc2-3)CCO1 (configuration not stated) | 0.251 | 0.631
COc1ccc(N(C(C)=O)c2nc3ccccc3[nH]2)cc1 | 0.25 | 0.621
CC(C)CS(=O)(=O)c1cccs1 | 0.253 | 0.616
CCCSc1nc(O)c(CC)c(=O)n1-c1ccccc1 | 0.257 | 0.61
Clc1ccccc1CN1CCc2c([nH]c3ccccc23)C1 | 0.246 | 0.636
COc1ccc(C)cc1NCc1ccc(SC)cc1 | 0.282 | 0.644
CC(C)(C)c1ccc(OCCCn2ccnc2)cc1 | 0.251 | 0.606
CCCN(Cc1cccc([N+](=O)[O-])c1)CC1CC1 | 0.246 | 0.607
N#C/C(=C/c1ccc(F)cc1)c1nc(-c2ccccc2)cs1 | 0.238 | 0.598
COc1ccc(C2(CNC(C)=O)CCOCC2)cc1OC | 0.259 | 0.629
CC1(C)CC(=O)C2=C(C1)Nc1ccccc1NC2c1cc2c(cc1[N+](=O)[O-])OCO2 (configuration not stated) | 0.225 | 0.606
CC(=O)c1ccc(OCCOc2ccc(C(C)=O)cc2)cc1 | 0.248 | 0.607
NC(Cc1c[nH]c2ccc(OCc3ccccc3)cc12)C(=O)O (configuration not stated) | 0.243 | 0.586
O=S(=O)(c1ccc(Cl)c(Cl)c1)N1CCCCC1 | 0.252 | 0.619
O=C(C(Cl)Cl)N1CCN(c2ccc([N+](=O)[O-])cc2)CC1 | 0.251 | 0.63
COc1cccc(N2CCN(C/C=C/c3ccccc3[N+](=O)[O-])CC2)c1 | 0.257 | 0.637

Compound | plate-normalized OD600 growth (temperature: 15°C, 48 h) | plate-normalized OD600 growth (temperature: 37°C, 24 h)
COc1ccccc1OCCSc1nc2ccccc2o1 | 0.261 | 0.608
Cc1cc(SCC(C)C)n2ncnc2n1 | 0.248 | 0.656
N#CCCS(=O)(=O)c1ccc(Br)cc1 | 0.258 | 0.63
Cc1c(C(=O)NN2CCN(C)CC2)cccc1[N+](=O)[O-] | 0.265 | 0.618
COc1ccc(C(=O)N2CCN(CC(=O)N3CCOCC3)CC2)cc1 | 0.236 | 0.646
COc1cc(NC(=O)c2ccc([N+](=O)[O-])cc2)c(OC)cc1NC(C)=O | 0.257 | 0.622
COc1ccc(CN2CCSCC2)c(C)c1C | 0.247 | 0.642
O=C1C(=O)c2ccccc2C(O)=C1c1ccc(Cl)cc1 | 0.274 | 0.651
Cc1cc([N+](=O)[O-])nn1CC(=O)NCC(C)C | 0.264 | 0.617
C(=C\c1cc(/C=C/c2ccccc2)ncn1)/c1ccccc1 | 0.252 | 0.626
Nc1ccc(C(=O)Nc2ccc(NC(=O)c3ccc(N)cc3)cc2)cc1 | 0.254 | 0.612
Nn1c(CCC(=O)O)nc2sc3c(c2c1=O)CCCC3 | 0.25 | 0.635
CCC1CCC(NCc2cccc(OC)c2OC)CC1 (configuration not stated) | 0.253 | 0.603
Cc1ccc(C(C)NC(=O)c2ccccc2)c(C)c1 (configuration not stated) | 0.267 | 0.619
CC(C)(C)C1=C[C@@H](CO)C[C@@H](CO)C1 | 0.248 | 0.635
COc1ccc(-c2csc(C(C#N)=Cc3ccc(F)cc3)n2)cc1OC | 0.244 | 0.612
Oc1cc(-c2nc3ccccc3o2)c(O)cc1-c1nc2ccccc2o1 | 0.247 | 0.63
Nc1nc2sc3c(c2cc1C(=O)N1CCOCC1)CCCC3 | 0.253 | 0.625
CC1(C)Cc2c(sc3nc(NN)nc(NN)c23)CO1 | 0.233 | 0.619
N#CC1=C(N)OC2=C(C(=O)CCC2)C1c1ccccc1Cl (configuration not stated) | 0.256 | 0.617
c1ccc(CN2CCN(Cc3ccco3)CC2)cc1 | 0.26 | 0.617
COc1ccc(Cl)cc1S(=O)(=O)N1CCN(C)CC1 | 0.269 | 0.633

Compound | plate-normalized OD600 growth (temperature: 15°C, 48 h) | plate-normalized OD600 growth (temperature: 37°C, 24 h)
COc1ccc(OC)c(C(=O)c2coc3ccc(OCC(=O)O)cc23)c1 | 0.261 | 0.645
O=C(Nc1cccc([N+](=O)[O-])c1)c1cccc(S(=O)(=O)N2CCOCC2)c1 | 0.237 | 0.595
COc1ccc(/C=C(\C#N)c2nn(-c3ccccc3)c(N)c2C#N)cc1 | 0.264 | 0.643
Cc1[nH]nc2c1C(c1cc(Cl)cc(Cl)c1O)C(C#N)=C(N)O2 (configuration not stated) | 0.258 | 0.622
COc1ccc(OCC(=O)Nc2cc([N+](=O)[O-])ccc2C)cc1 | 0.239 | 0.598
Cc1ccccc1N1CCN(Cc2c[nH]c3ccccc23)CC1 | 0.254 | 0.609
c1ccc(-c2ccc(CN3CCN(c4ncccn4)CC3)cc2)cc1 | 0.245 | 0.608
N#Cc1ccccc1NC(=O)c1ccc([N+](=O)[O-])cc1 | 0.247 | 0.601
COc1ccccc1C1CC(=O)N(C)C2=C1C(=O)CC(C)(C)C2 (configuration not stated) | 0.265 | 0.631
O=c1c2c(nc3n1CCS3)-c1ccccc1CC21CCCCC1 | 0.277 | 0.639
COc1ccc(C(=O)Nc2ccc(C(C)C)cc2)cc1OC | 0.247 | 0.611
CCCN1CCC(N(CC)Cc2ccccc2)CC1 | 0.271 | 0.667
O=C(O)CCC(=O)Nc1ccc(S(=O)(=O)c2ccc(NC(=O)CCC(=O)O)cc2)cc1 | 0.281 | 0.628
COc1ccc(NC(=O)c2ccc(-c3ccccc3)cc2)c([N+](=O)[O-])c1 | 0.238 | 0.608
CCN(Cc1ccccc1)Cc1ccco1 | 0.259 | 0.64
CCCOc1ccc(CSC2=NCCN2)cc1[N+](=O)[O-] | 0.261 | 0.623
C=CCn1c2ccccc2n2c(C(=O)CC)c(-c3ccc(OC)cc3)nc12 | 0.256 | 0.63
CCCN(CCO)Cc1ccccc1F | 0.235 | 0.589
CN(C)CC[S+]([O-])c1ccccc1 (configuration not stated) | 0.268 | 0.636
CC(=O)Nc1cccc(NS(=O)(=O)c2cc(Cl)ccc2Cl)c1 | 0.236 | 0.638
N#CC1=C(N)SC(N)=C(C#N)C1C1CCCCC1 | 0.249 | 0.65
O=C(O)CCCNC(=O)c1ccccn1 | 0.25 | 0.612

In the list so far, these contain a halogen:
Compound | plate-normalized OD600 growth (temperature: 15°C, 48 h) | plate-normalized OD600 growth (temperature: 37°C, 24 h)
Oc1c(Cl)cc(Cl)cc1C(C#Cc1ccccc1)N1CCOCC1 (configuration not stated) | 0.262 | 0.62
Clc1ccccc1CN1CCc2c([nH]c3ccccc23)C1 | 0.246 | 0.636
N#C/C(=C/c1ccc(F)cc1)c1nc(-c2ccccc2)cs1 | 0.238 | 0.598
O=S(=O)(c1ccc(Cl)c(Cl)c1)N1CCCCC1 | 0.252 | 0.619
O=C(C(Cl)Cl)N1CCN(c2ccc([N+](=O)[O-])cc2)CC1 | 0.251 | 0.63
N#CCCS(=O)(=O)c1ccc(Br)cc1 | 0.258 | 0.63
O=C1C(=O)c2ccccc2C(O)=C1c1ccc(Cl)cc1 | 0.274 | 0.651
COc1ccc(-c2csc(C(C#N)=Cc3ccc(F)cc3)n2)cc1OC | 0.244 | 0.612
N#CC1=C(N)OC2=C(C(=O)CCC2)C1c1ccccc1Cl (configuration not stated) | 0.256 | 0.617
COc1ccc(Cl)cc1S(=O)(=O)N1CCN(C)CC1 | 0.269 | 0.633
Cc1[nH]nc2c1C(c1cc(Cl)cc(Cl)c1O)C(C#N)=C(N)O2 (configuration not stated) | 0.258 | 0.622
CCCN(CCO)Cc1ccccc1F | 0.235 | 0.589
CC(=O)Nc1cccc(NS(=O)(=O)c2cc(Cl)ccc2Cl)c1 | 0.236 | 0.638

Entries of single compounds, quoted from the list:
Cc1[nH]nc2c1C(c1cc(Cl)cc(Cl)c1O)C(C#N)=C(N)O2 (configuration not stated) is listed as plate-normalized OD600 growth (temperature: 15°C, 48 h): 0.258; plate-normalized OD600 growth (temperature: 37°C, 24 h): 0.622
N#Cc1ccccc1NC(=O)c1ccc([N+](=O)[O-])cc1 is listed as plate-normalized OD600 growth (temperature: 15°C, 48 h): 0.247; plate-normalized OD600 growth (temperature: 37°C, 24 h): 0.601
CC(=O)Nc1cccc(NS(=O)(=O)c2cc(Cl)ccc2Cl)c1 is listed as plate-normalized OD600 growth (temperature: 15°C, 48 h): 0.236; plate-normalized OD600 growth (temperature: 37°C, 24 h): 0.638

Carrying on:

Compound | plate-normalized OD600 growth (temperature: 15°C, 48 h) | plate-normalized OD600 growth (temperature: 37°C, 24 h)
Cc1onc(-c2ccccc2Cl)c1C(=O)Nc1nnc(Cc2ccc(Cl)cc2)s1 | 0.241 | 0.608
O=C(CCN1C(=O)c2ccccc2C1=O)Nc1ccc(Cl)cc1 | 0.257 | 0.633
CC1CC(=O)C2=C(C1)OC(N)=C(C#N)C2c1ccoc1 (configuration not stated) | 0.249 | 0.613
C(=C\c1ccccc1)/CN1CCN(C2C3CC4CC(C3)CC2C4)CC1 (configuration not stated) | 0.256 | 0.593
c1cc2cn[nH]c2cc1NC1CCCCCC1 | 0.233 | 0.604
Cc1nc([N+](=O)[O-])c(N2CCN(C)CC2)n1Cc1ccccc1 | 0.254 | 0.625
C/C=C(\C)CN1CCN(CCOCCO)CC1 | 0.269 | 0.664
O=S1(=O)C=CC(N2CCCCC2)C1 (configuration not stated) | 0.243 | 0.597
CCCCOC(=O)Nc1nnc(CCc2ccccc2)s1 | 0.265 | 0.623
CC(C)(C)NCCOc1cccc(Cl)c1Cl | 0.252 | 0.608
Cc1ccc(NC(=O)c2cccnc2)c([N+](=O)[O-])c1 | 0.262 | 0.606
Cc1n[nH]c(=O)c2cc3c(C)n[nH]c(=O)c3cc12 | 0.259 | 0.622
Cc1cc(C)nc(N2CC(=O)N(C)C2=N)n1 | 0.246 | 0.608
Clc1ccccc1C1NCCc2c1[nH]c1ccccc21 (configuration not stated) | 0.278 | 0.631
CCCN1CCC(N(C)CCN(C)C)CC1 | 0.249 | 0.621
Cc1ccccc1OCCCCN1CCCCC1 | 0.265 | 0.623
O=C(Nc1nnc(-c2ccccc2)s1)C1CCCCC1 | 0.25 | 0.606
Cc1ccccc1-c1nnc(-c2ccco2)o1 | 0.248 | 0.607
Cc1cccc(N2C(=O)CC(N3CCN(c4ccccn4)CC3)C2=O)c1 (configuration not stated) | 0.248 | 0.645
CC(O)(C#CCN1CCCC1)c1ccccc1 (configuration not stated) | 0.267 | 0.622
CC=CC=CC(=O)Nc1c[nH]c(=O)[nH]c1=O | 0.23 | 0.648
COc1cc2c(cc1OC)C(c1cc3c(cc1[N+](=O)[O-])OCO3)N(C(C)=O)CC2 (configuration not stated) | 0.242 | 0.618

Compound | plate-normalized OD600 growth (temperature: 15°C, 48 h) | plate-normalized OD600 growth (temperature: 37°C, 24 h)
CCN(CC)C(=O)C1CCCN(Cc2cc(Br)c(OC)cc2OC)C1 (configuration not stated) | 0.259 | 0.691
O=C(NC1CCCCC1)c1cccc(S(=O)(=O)N2CCCCC2)c1 | 0.251 | 0.607
C(CNC1C2CC3CC(C2)CC1C3)CN1CCOCC1 (configuration not stated) | 0.269 | 0.614
CC(C)Oc1ccc(CNC2CCOC(C)(C)C2)cc1 (configuration not stated) | 0.258 | 0.629
c1cc(Nc2ncnc3sc4c(c23)CCC4)ccn1 | 0.256 | 0.623
CC(=O)NC(CO)C(=O)c1ccc([N+](=O)[O-])cc1 (configuration not stated) | 0.248 | 0.624
CC(=O)c1cc2c(cc1NC(=O)c1ccc(Cl)cc1)OCCO2 | 0.251 | 0.638
N#CC(=Cc1cccc(F)c1)c1nc(-c2ccc3c(c2)OCO3)cs1 | 0.267 | 0.618
CCN(CC)C(=O)C1CCCN(Cc2ccccc2OC)C1 (configuration not stated) | 0.257 | 0.654
CC(=O)c1ccc(OCCOc2ccc([N+](=O)[O-])cc2)cc1 | 0.24 | 0.59
CCn1c2ccccc2c2cc(CN(C)C3CCN(C)CC3)ccc21 | 0.243 | 0.616
COc1cc(OC)c(CNc2ccc3cn[nH]c3c2)cc1Br | 0.244 | 0.614
COc1cccc(C(=O)Nc2cc(Cl)ccc2C)c1 | 0.242 | 0.598
COc1cc(CNC23CC4CC(CC(C4)C2)C3)cc2c1OCO2 | 0.263 | 0.642
O=C(NCC1COc2ccccc2O1)c1cccc([N+](=O)[O-])c1 (configuration not stated) | 0.25 | 0.601
Cc1ccc(S(=O)(=O)CCSc2cccc(C(=O)Nc3ccccc3)c2)cc1 | 0.243 | 0.633
COc1ccc2[nH]cc(CCNC(=O)c3ccc([N+](=O)[O-])cc3)c2c1 | 0.266 | 0.643
N#Cc1c2n(c3c(=O)n(Cc4ccc(Cl)cc4)cnc13)CCCCC2 | 0.233 | 0.604
